Results from the supplement of paper PMC10338343.
± gives the standard deviation. Some of the results follow. Many entries were measured with a wide error.

System: EfPiwi piRISC loaded with L1MC piRNA (26 nt)
Test: pre-steady-state target cleavage rate (min^-1); guide: L1MC piRNA 5'p-UAACUAAAUACUAUGCAAGCUGUAGG; MIWI and MILI are mouse PIWI proteins and EfPiwi is from a freshwater sponge; tags in brackets are library labels; higher = faster piRNA-guided slicing of the target
Conditions: auxiliary factor: 500 nM Ephydatia muelleri Gtsf1
Method in brief: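 In HEPES–potassium acetate buffer at 33 °C, […] transcribed, DNA-blocked target RNA library was mixed with 1 nM active affinity-purified piRISC carrying one synthetic guide, with or without 500 nM GTSF1 partner protein, for 0–8 or 0–960 min. Uncleaved targets were sequenced and normalised to depth and to weakly complementary targets; three trials were pooled and k3 was capped at 0.0001 min^-1. The pre-steady-state cleavage rate followed from a burst-and-steady-state fit.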

Sequence | pre-steady-state target cleavage rate
UCCUGGUACAGCUAGCAUAGUAUUUUCAAA | 0.00108 ± 0.0048
UCCUCCUAGAGCUUGCAUAGAAUUUAGUUA | 0.00468 ± 0.0013
UCCUGGAUGUCGAAGCAUAGUAUUUAGUUC [g2:g16:cont:t1C] | 0.000309 ± 0.0092
UCCUGGAUGUCCAACCAUAGUAUUUAGUUA | 0.000454 ± 0.0085
UCCUGGAUGUCGUUGCAUUCUAUUUAGUUA | 0.000365 ± 0.0082
UCCUGGUAGAGCUUGCAUAGUAUUUAGAAA | 0.00392 ± 0.0022
UCCUGGAUGUCCUUGGAUACUAUUUAGUUA | 0.000195 ± 0.019
UCCUGGAACUGCUUGCAUAGUAUUAAGUUA | 0.00242 ± 0.0029
UCCUGGAUCAGCUUGCUAUGUAUUUAGUAA | 0.000255 ± 0.012
UCCUGGAUCAGGAAGCAUAGUAUUUAGUUA | 0.00253 ± 0.0028
UCCUGGAUCAGCUUGCAUAGUAUAAUGAAA | 0.0033 ± 0.0037
UCCUGGAUGAGCUUGCAUUGAAUUUAGUUA | 0.000994 ± 0.0058
UCCUGGUACAGCUAGCAUAGUUUUUAGUUA | 0.00236 ± 0.0026
UCCUGGAUGUCGUUGCAUAGUUUUUAGAUA | 0.000214 ± 0.015
UCCUGGAUGUCGUUGCGAUAGUAUUUAGUUA | 0.000245 ± 0.014
UCCUGGAUGUCGAAGCAGAGUAUUUAGUUA | 0.000288 ± 0.0099
UCCUCCUACAGCUUGCAUAGUCUUUAGUUA | 0.0068 ± 0.0025
UCCUGGAUGUCGAAGAUAGUAUUUAGUUA | 0.00025 ± 0.015
UCCUGGAUGUCGAAGGAUAGUUUUUAGUUA | < 0.0001
UCCUGGAUGUCGAAGCAUAGCAUUUAGUUA | 0.000335 ± 0.01
UCCUGGAUGAGCUUGCAUAGUAUUUCAGUUA | 0.00264 ± 0.0023
UCCUGGAUGUCGAUGACAUAGUAUUUAGUUA | 0.000404 ± 0.0076
UCCUGGAUGUCGAACCUAGUAUUUAGUUA | 0.000258 ± 0.013
UCCUGGAUGUCGAUGCAUAGUUUUUACUUA | 0.000209 ± 0.014

A second format for some results above:
Sequence	pre-steady-state target cleavage rate
UCCUCCUAGAGCUUGCAUAGAAUUUAGUUA	0.00468 ± 0.0013
UCCUGGAUGUCGUUGCAUUCUAUUUAGUUA	0.000365 ± 0.0082
UCCUGGUAGAGCUUGCAUAGUAUUUAGAAA	0.00392 ± 0.0022
UCCUGGAUGUCGAUGACAUAGUAUUUAGUUA	0.000404 ± 0.0076
